Reference: PubChem BioAssay AID1259405 (NCATS, 2018)
This is a random part of about 50,000 reagents tested. About 4,000 of all reagents (8%) were called active. 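Mouse siRNA library applied to hamster cells; one well for each siRNA.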 A number with no mark means an inactive call. The numbers tell different reagents against one gene apart. No sequences are given here.

Assay: 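Mouse-designed siRNAs used to find CHO productivity engineering targets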 (primary screen)
System: Chinese hamster CHO-K1 ovary cells with stable secreted eGFP expression
Reagents: single siRNA against mouse genes, 0.8 pmol siRNA per well (2 µl of 400 nM stock)
Timing: 3 days
Read-out: 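Per-well intracellular GFP measured by laser scanning cytometry, plus viability from ATP luminescence, each relative to plate median of non-targeting control wells, in %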
Scale: GFP, % of control: higher = more GFP per well, higher productivity; viability (ATP), % of control: higher = more viable cells (more ATP)
Rule for the call: 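a knock-down is called active if GFP reaches 120% or more of non-targeting control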

Against Ccnk #1, the values are GFP, % of control 136 (active); viability (ATP), % of control 106.
After knock-down of Ccnk #2, the record shows GFP, % of control 126 (active); viability (ATP), % of control 63.
Against Ccnk #3, the entry reads GFP, % of control 94.9; viability (ATP), % of control 96.1.
Depletion of Nudt1 #1 came out at: GFP, % of control 55; viability (ATP), % of control 22.2.
Against Nudt1 #2 the deposit lists GFP, % of control 100; viability (ATP), % of control 83.7.
Nudt1 #3 scored GFP, % of control 143 (active); viability (ATP), % of control 85.
With knock-down of Sesn1 #1, the screen gave GFP, % of control 75.7; viability (ATP), % of control 65.9.
After knock-down of Sesn1 #2, the screen gave GFP, % of control 67.3; viability (ATP), % of control 89.5.
For Sesn1 #3, the values are GFP, % of control 52; viability (ATP), % of control 65.1.
Against Nkain3 #1 the deposit lists GFP, % of control 49.3; viability (ATP), % of control 60.3.
Depletion of Nkain3 #2 came out at: GFP, % of control 59.2; viability (ATP), % of control 75.1.
For Nkain3 #3, the entry reads GFP, % of control 60.1; viability (ATP), % of control 72.1.
After knock-down of Ifna2 #1, the screen gave GFP, % of control 71.5; viability (ATP), % of control 53.7.
Against Ifna2 #2, the entry reads GFP, % of control 97.4; viability (ATP), % of control 70.5.
Against Ifna2 #3 the deposit lists GFP, % of control 78.8; viability (ATP), % of control 46.7.
Depletion of Sytl1 #1 came out at: GFP, % of control 70.9; viability (ATP), % of control 143.
Against Sytl1 #2 the deposit lists GFP, % of control 93.3; viability (ATP), % of control 94.7.
With knock-down of Nppb #1, the screen gave GFP, % of control 62.7; viability (ATP), % of control 61.5.
With knock-down of Nppb #2 the results were GFP, % of control 110; viability (ATP), % of control 84.2.
Depletion of Nppb #3 resulted in: GFP, % of control 82.3; viability (ATP), % of control 55.3.
Knock-down of Dcx #1 came out at: GFP, % of control 99; viability (ATP), % of control 52.7.
Against Dcx #2 the deposit lists GFP, % of control 86.6; viability (ATP), % of control 79.5.
With knock-down of Dcx #3 the results were GFP, % of control 80.8; viability (ATP), % of control 83.4.
Against Ptprk #1, the entry reads GFP, % of control 50.4; viability (ATP), % of control 72.3.
Silencing of Ptprk #2 gave: GFP, % of control 102; viability (ATP), % of control 60.6.
Silencing of Ptprk #3 came out at: GFP, % of control 87.6; viability (ATP), % of control 75.7.
Silencing of Smg9 #1 gave: GFP, % of control 83.6; viability (ATP), % of control 73.7.
Against Smg9 #2 the deposit lists GFP, % of control 110; viability (ATP), % of control 91.2.
Against Smg9 #3, the entry reads GFP, % of control 51.1; viability (ATP), % of control 66.2.
Ssna1 #1 showed GFP, % of control 39; viability (ATP), % of control 42.1.
Silencing of Ssna1 #2 resulted in: GFP, % of control 118; viability (ATP), % of control 114.
With knock-down of Ssna1 #3, the screen gave GFP, % of control 119; viability (ATP), % of control 94.7.
Knock-down of Mecr #1 gave: GFP, % of control 115; viability (ATP), % of control 99.4.
Silencing of Mecr #2 came out at: GFP, % of control 80.2; viability (ATP), % of control 88.8.
Silencing of Mecr #3 gave: GFP, % of control 44.3; viability (ATP), % of control 36.7.
After knock-down of Nyap1 #1 the results were GFP, % of control 82.2; viability (ATP), % of control 91.9.
Nyap1 #2 showed GFP, % of control 69.5; viability (ATP), % of control 94.3.
Nyap1 #3 scored GFP, % of control 106; viability (ATP), % of control 134.
Against Gimap4 #1, the values are GFP, % of control 49.9; viability (ATP), % of control 74.
Against Gimap4 #2 the deposit lists GFP, % of control 70.4; viability (ATP), % of control 77.7.
Against Gimap4 #3, the values are GFP, % of control 90.3; viability (ATP), % of control 93.4.
